According to paper doi:10.1101/2021.01.06.425657:
Results are given in words; binding and its absence hold for the method and conditions named. In cells and extracts the contact can be indirect. Some results given as binding are weak or reduced against the parent protein; the word gives no strength. Where a sequence is shown, tags or fusion partners need not be part of it.

Molecular target: T1, Met30-Flag (S. cerevisiae) (UniProt P39014)
T1 sequence: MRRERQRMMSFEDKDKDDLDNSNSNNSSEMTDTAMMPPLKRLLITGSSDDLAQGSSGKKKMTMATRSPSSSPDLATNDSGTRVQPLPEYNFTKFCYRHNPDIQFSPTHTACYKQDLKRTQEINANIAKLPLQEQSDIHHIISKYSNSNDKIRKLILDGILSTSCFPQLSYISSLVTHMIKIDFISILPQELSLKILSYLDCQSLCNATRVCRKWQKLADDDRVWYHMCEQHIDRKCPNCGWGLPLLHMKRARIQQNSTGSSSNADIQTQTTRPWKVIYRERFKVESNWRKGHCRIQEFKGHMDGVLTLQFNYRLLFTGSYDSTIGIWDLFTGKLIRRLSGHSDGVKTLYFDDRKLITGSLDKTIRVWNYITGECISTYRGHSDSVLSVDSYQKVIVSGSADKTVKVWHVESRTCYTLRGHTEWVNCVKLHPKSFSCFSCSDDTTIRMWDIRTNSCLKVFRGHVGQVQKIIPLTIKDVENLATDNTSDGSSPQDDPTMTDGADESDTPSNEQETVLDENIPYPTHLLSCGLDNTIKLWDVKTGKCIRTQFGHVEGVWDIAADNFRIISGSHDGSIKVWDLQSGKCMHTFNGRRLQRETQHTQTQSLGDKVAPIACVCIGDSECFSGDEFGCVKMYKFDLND
Assay: co-IP

binding: binds
B1: Cdc53 (protein, UniProt Q12018 1-815)
chain: MSETLPRSDDLEATWNFIEPGINQILGNEKNQASTSKRVYKILSPTMYMEVYTAIYNYCVNKSRSSGHFSTDSRTGQSTILVGSEIYEKLKNYLKNYILNFKQSNSETFLQFYVKRWKRFTIGAIFLNHAFDYMNRYWVQKERSDGKRHIFDVNTLCLMTWKEVMFDPSKDVLINELLDQVTLGREGQIIQRSNISTAIKSLVALGIDPQDLKKLNLNVYIQVFEKPFLKKTQEYYTQYTNDYLEKHSVTEYIFEAHEIIKREEKAMTIYWDDHTKKPLSMALNKVLITDHIEKLENEFVVLLDARDIEKITSLYALIRRDFTLIPRMASVFENYVKKTGENEISSLLAMHKHNIMKNENANPKKLALMTAHSLSPKDYIKKLLEVHDIFSKIFNESFPDDIPLAKALDNACGAFININEFALPAGSPKSATSKTSEMLAKYSDILLKKATKPEVASDMSDEDIITIFKYLTDKDAFETHYRRLFAKRLIHGTSTSAEDEENIIQRLQAANSMEYTGKITKMFQDIRLSKILEDDFAVALKNEPDYSKAKYPDLQPFVLAENMWPFSYQEVEFKLPKELVPSHEKLKESYSQKHNGRILKWLWPLCRGELKADIGKPGRMPFNFTVTLFQMAILLLYNDADVLTLENIQEGTSLTIQHIAAAMVPFIKFKLIQQVPPGLDALVKPETQFKLSRPYKALKTNINFASGVKNDILQSLSGGGHDNHGNKLGNKRLTEDERIEKELNTERQIFLEACIVRIMKAKRNLPHTTLVNECIAQSHQRFNAKVSMVKRAIDSLIQKGYLQRGDDGESYAYLA
